Experimental data from US20110020518A1, “TASTE MODIFYING PRODUCT” (priority 2008, published 2011).

Tested on: kokumi/umami taste
Assay: Evaluation of alkylpyridines: taste panel of 8 trained panelists, samples in 0.3% aqueous NaCl
Format: in vivo
Details: 10 ppm in 0.3% aqueous NaCl
Description: Alkylpyridines shown in the following table were prepared by firstly being diluted into propylene glycol solvent in order to provide a 10% solution of the alkylpyridine. Each solution was then diluted using a 0.3% aqueous solution of NaCl, heated if necessary to achieve better dissolution, to a concentration of between 10 ppm and 30 ppm of the alkylpyridine. The samples were then stored at ambient temperature.
A panel consisting of 8 trained panelists evaluated the samples for taste properties on a scale of 0 to 10 where 0 denoted no kokumi/umami effect and 10 denoted extremely strong kokumi/umami effect.

| Structure (SMILES) | Description (taste) |
| --- | --- |
| CCc1ccccn1 [2-Ethylpyridine, reference compound] | Plastic, slightly amine, green, rubbery, |
| CCCCCCc1ccccn1 [2-Hexylpyridine] | Fruity, fatty, oily, green, bell pepper |
| CCCc1ccccn1 [2-Propylpyridine, reference compound] | Plastic, slightly fruity, green, vegetal, |
| CCCCCCCc1ccccn1 [Compound of ex. 1, 2-heptylpyridine] | Fruity, woody, blackcurrant, green, |
| CCCCCCCCc1ccccn1 [Compound of ex. 2, 2-octylpyridine] | Fruity, bit rotten, weak, fatty, waxy, |
| CCCCCCCCCc1ccccn1 [Compound of ex. 3, 2-nonylpyridine] | Waxy, fatty, slightly fruity, slightly |
| CCCCCCCCCCCc1ccccn1 [Compound of ex. 4, 2-undecylpyridine] | Weak, fabric conditioner |
| CCCCCCCCCCCCc1ccccn1 [Compound of ex. 5, 2-dodecylpyridine] | Slightly floral, very weak |
| CCCCCc1cc(C)ccn1 [Compound of ex. 6, 4-methyl-2-pentylpyridine] | Fruity, woody, strong |

Same assay, conditions: 20 ppm in 0.3% aqueous NaCl

| Structure (SMILES) | Description (taste) |
| --- | --- |
| Cc1ccccn1 [2-picoline, reference compound] | Chemical, hot plastic, polystyrene, |

Same assay, conditions: 30 ppm in 0.3% aqueous NaCl

| Structure (SMILES) | Description (taste) |
| --- | --- |
| c1ccncc1 [Pyridine, reference compound] | Sweet, plastic, chemical, slightly amine, |

Tested on: not given
Assay: not given
Details: as disclosed in U.S. Pat. No. 5,298,486; cited from earlier work

| Structure (SMILES) | organoleptic description |
| --- | --- |
| CCCCCCCc1cccnc1 [3-heptylpyridine] | fatty, metallic and fishy |
| CCCCCCc1cccnc1 [3-hexylpyridine] | fruity |
